According to US20200147235A1:
Changes are numbered by the printed parent chain. Results are given in words; binding and its absence hold for the method and conditions named. Some entries that bind do so weakly or less than the wild type.

B1: Anti-CD98 murine hybridoma antibody Ab1 (antibody, V domains shown)
VH: EVKLVESGGGLVQPGGSLRLSCATSGFTFTDYYMSWVRQPPGKALEWLGFIRNPANVYTTEYSASVKGRFTISRDNSQSILYLQMNTLRAEDSATYYCARASYGNSEGWFAYWGQGTLVTVSA
VL: DIVMSQSPSSLAVSVGEKVTMSCKSSQNLLYNNNQKNYLAWYQQKPGQSPKLLIYWASTRESGVPDRFTGSGSGTDFTLTISSVKAEDLAVYYCQQYYSYPRTFGGGTKLEIK
B2: Anti-CD98 murine hybridoma antibody Ab3 (antibody, V domains shown)
VH: EVKLVESGGGLVQPGNSLRLSCATSGFTFIDYYMSWVRQSPGKALEWLGFIRNKANGYTTEYSASVKGRFTISRDNSQSILYLQMDTLRAEDSATYYCTRDRPAWFVYWGQGTLVTVSA
VL: B1 VL with N28S, N32S, N33S, I81F, K85R, R102Y
B3: Anti-CD98 murine hybridoma antibody Ab5 (antibody, V domains shown)
VH: B1 VH with S35T, P54K, V57G, Q78L, G104V
VL: B1 VL with N28S, N32S, N33S, P46L, Q96H
B4: Anti-CD98 rat hybridoma antibody Ab6 (antibody, V domains shown)
VH: QVQLKESGPGLAQPSQTLSLTCTVSGFSLSTYGVIWLRQPPGKGLEWMGVIWTNGNTNYNSTLKSRLSISRDTSESQVYLQMNSLQTEDTATYYCARHYYDGAYYYGYFDYWGQGVMVTVSS
VL: DIVMTQTPSSQAVSAGEKVTMSCKSSQSLLYSENKKNYLAWYQQKPGQSPKLLIYWASTRESGVPDRFIGSGSGTDFTLTISSVQAEDLAVYYCQQYYYFPYTFGAGTKLELK
B5: Anti-CD98 rat hybridoma antibody Ab7 (antibody, V domains shown)
VH: B4 VH with A12V, L37V, T53A, E75K, Q81K, A103T
VL: B4 VL with S22N, A106P
B6: Anti-CD98 rat hybridoma antibody Ab9 (antibody, V domains shown)
VH: B4 VH with A12V, T23A, T31N, L37V, G49A, E75K, Q81K, A103T
VL: B4 VL with S32T, I69M, T103M
B7: Anti-CD98 rat hybridoma antibody Ab10 (antibody, V domains shown)
VH: EVQLVESGGGLVQPGRSLKLSCAASGFTFSDYAMAWVRQAPKKSLEWVATIIYDGRGTYCRDSVKGRFTISRDNAKSTLYLQMDSLRSEDTATYYCARQGDGTYHYWGYFDYWGQGVMVTVSS
VL: DIVMTQSPSSLAVSAGETVTINCKSSQSLLSSGNQKNYLAWYQQKPGQSPKLLIYWASTRQSGVPDRFIGSGSGTDFTLTISSVQAEDLAIYYCQQYYDTPYTFGAGTKVDLK
B8: Anti-CD98 rat hybridoma antibody Ab11 (antibody, V domains shown)
VH: B7 VH with S44G, T50G, C60Y, H105Y
VL: B7 VL with K24R, V110L, D111E
B9: Anti-CD98 rat hybridoma antibody Ab15 (antibody, V domains shown)
VH: B7 VH with A33T, S44G, C60Y, G100S, H105Y
VL: B7 VL with S31F, S82R, T100S, V110L, D111E

Molecular target: Human CD98 (human)
Assay: hybridoma screening: ELISA on CD98-ECD, flow cytometry on CD98-expressing cells

Binder	binding
B1	binds
B2	binds
B3	binds
B4	binds
B5	binds
B6	binds
B7	binds
B8	binds
B9	binds
